What all share (test): DAPPL (digital affinity profiling via proximity ligation, sequencing)
Conditions in all cases: 10 mM Tris-HCl pH 7.5, 50 mM NaCl, 1 mM DTT, 4% glycerol, room temperature, 30 min; GST-TFs on glutathione beads, 16-mer random dsDNA library, 0.1% …; high values mean tight binding; double strand, one strand shown; scale: fold enrichment (6-mer frequency, TF over GST control)

By UniProt entry, the sequences of proteins in these tests, tags left out. Where a name states a change or a piece, a line headed by the entry shows the natural chain unless it says otherwise.
UniProt Q01892: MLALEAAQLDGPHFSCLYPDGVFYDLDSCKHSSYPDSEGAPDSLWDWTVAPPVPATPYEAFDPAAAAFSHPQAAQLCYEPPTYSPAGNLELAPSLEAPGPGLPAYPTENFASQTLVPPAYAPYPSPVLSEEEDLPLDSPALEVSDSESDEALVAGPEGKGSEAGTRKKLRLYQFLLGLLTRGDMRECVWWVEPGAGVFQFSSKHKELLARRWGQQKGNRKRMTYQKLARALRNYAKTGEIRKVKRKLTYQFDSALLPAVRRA
UniProt P41161: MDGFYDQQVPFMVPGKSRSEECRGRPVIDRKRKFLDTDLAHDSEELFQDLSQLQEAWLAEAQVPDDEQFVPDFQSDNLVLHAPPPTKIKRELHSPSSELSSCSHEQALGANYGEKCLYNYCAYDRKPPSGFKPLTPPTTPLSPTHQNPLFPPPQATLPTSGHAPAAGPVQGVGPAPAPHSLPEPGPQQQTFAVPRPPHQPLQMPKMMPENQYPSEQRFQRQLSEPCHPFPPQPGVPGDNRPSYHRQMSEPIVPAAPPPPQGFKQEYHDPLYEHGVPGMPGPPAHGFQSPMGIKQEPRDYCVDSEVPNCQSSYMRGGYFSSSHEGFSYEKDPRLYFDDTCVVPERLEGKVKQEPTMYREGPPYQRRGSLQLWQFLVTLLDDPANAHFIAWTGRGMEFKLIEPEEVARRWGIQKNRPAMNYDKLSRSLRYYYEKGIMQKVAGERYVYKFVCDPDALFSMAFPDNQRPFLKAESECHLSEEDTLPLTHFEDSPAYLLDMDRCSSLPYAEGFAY
UniProt Q99607: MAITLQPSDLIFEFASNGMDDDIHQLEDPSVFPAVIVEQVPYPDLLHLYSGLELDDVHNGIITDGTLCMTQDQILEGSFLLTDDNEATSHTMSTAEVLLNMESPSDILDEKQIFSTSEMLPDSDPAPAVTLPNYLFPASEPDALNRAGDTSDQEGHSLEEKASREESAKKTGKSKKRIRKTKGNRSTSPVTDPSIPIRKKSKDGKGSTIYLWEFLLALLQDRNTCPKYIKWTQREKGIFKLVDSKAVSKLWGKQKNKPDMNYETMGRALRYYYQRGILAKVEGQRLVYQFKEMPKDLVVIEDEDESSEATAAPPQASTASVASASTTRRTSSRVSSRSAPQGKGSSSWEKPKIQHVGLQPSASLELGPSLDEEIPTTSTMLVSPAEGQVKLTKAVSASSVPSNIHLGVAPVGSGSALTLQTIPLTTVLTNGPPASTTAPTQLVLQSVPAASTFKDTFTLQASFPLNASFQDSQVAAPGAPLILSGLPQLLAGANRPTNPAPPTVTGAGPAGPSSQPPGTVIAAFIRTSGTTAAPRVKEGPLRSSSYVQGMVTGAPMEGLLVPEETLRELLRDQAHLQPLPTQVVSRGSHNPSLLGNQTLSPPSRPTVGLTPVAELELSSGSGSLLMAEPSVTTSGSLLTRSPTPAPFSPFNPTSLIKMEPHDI

Assay [1] concerns the target T1, EHF (UniProt Q9NZC4).
T1 sequence: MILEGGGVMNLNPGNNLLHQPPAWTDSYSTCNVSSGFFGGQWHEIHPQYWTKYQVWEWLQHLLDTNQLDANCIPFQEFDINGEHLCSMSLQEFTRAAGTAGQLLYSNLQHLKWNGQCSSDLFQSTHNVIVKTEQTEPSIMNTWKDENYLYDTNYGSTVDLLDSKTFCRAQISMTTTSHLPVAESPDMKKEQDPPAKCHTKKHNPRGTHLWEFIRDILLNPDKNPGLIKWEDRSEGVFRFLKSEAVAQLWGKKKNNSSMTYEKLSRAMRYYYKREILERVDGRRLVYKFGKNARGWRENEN

For assay [2], the target named is SPIB (UniProt Q01892).
Assay [3] has as its target ETV5 (UniProt P41161).
Assay [4] concerns the target ELF4 (UniProt Q99607).
In assay [5] the target is T2, ETV2 (UniProt O00321).
T2 sequence: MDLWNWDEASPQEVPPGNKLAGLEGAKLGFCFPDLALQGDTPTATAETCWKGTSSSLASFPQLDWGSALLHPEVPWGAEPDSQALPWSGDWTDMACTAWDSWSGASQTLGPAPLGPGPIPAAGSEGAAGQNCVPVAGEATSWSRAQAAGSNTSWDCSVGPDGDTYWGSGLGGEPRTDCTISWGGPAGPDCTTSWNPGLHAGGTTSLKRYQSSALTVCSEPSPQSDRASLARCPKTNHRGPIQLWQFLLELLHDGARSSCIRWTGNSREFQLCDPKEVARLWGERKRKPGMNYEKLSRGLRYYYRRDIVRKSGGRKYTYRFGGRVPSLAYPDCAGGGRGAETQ

Assay [6] concerns the target T3, ETV3L (UniProt Q6ZN32).
T3 sequence: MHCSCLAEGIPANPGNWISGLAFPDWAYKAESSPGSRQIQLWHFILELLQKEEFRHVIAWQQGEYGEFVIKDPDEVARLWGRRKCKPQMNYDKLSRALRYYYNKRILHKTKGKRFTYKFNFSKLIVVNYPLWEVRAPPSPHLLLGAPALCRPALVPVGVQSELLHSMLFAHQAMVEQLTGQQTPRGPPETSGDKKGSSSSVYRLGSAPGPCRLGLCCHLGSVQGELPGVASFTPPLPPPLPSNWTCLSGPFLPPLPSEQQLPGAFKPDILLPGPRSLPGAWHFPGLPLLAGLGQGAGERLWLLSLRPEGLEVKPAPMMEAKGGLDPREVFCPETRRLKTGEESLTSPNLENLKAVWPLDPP

The entries are a selection whose mix differs from that of the whole data set. At the low end of the ranking the order means little.

As to TGAAGA, the binding signal in assay [1] worked out at 0.937; in assay [2] it was 0.842; in assay [3] it was 0.887; in assay [4], 1.01; in assay [5], 0.904; in assay [6] it was 0.924.

Consider TGCTCC, for which the binding signal in assay [2] was 1.41; in assay [3], 1.42; in assay [4], 1.41; in assay [5] it was 1.48; in assay [6], 1.45.

For AGGTTT, the binding signal was 1.04 in assay [2]; 1.05 in assay [3]; 1.07 in assay [4]; 1.05 in assay [5]; 0.998 in assay [6].

In the case of CATTGA, the binding signal in assay [1] is 0.933; in assay [2], 0.874; in assay [3], 0.925; in assay [4] it was 0.864; in assay [5] it was 0.968.

For the sequence ACCTAG, the binding signal was 0.975 in assay [2]; 0.986 in assay [3]; 1.06 in assay [4]; 0.946 in assay [5]; 1.05 in assay [6].

In the case of ATGGCG, the binding signal in assay [1] came out at 0.97; in assay [3], 1.02; in assay [4], 0.959; in assay [5], 0.968.

For CACCTA, the binding signal in assay [2] stood at 0.997; in assay [3], 0.928; in assay [4], 1.1; in assay [5] it was 0.954; in assay [6], 0.941.

For ATTCGG, the binding signal in assay [1] was 0.869; in assay [2], 0.928; in assay [3] it was 0.896; in assay [4], 0.946; in assay [5], 0.945; in assay [6], 0.989.

As for ATAATA, the binding signal in assay [1] amounted to 1.24; in assay [3] it was 1.18; in assay [4] it was 1.14.

Consider TCTGGA, for which the binding signal in assay [1] turned out to be 0.938; in assay [3], 0.993; in assay [4] it was 0.962; in assay [6] it was 1.1.

Regarding TATAGA, the binding signal in assay [1] amounted to 1.07; in assay [3], 1.08; in assay [4] it was 1.09; in assay [6], 1.18.

Consider CCGGCT, for which the binding signal in assay [3] came to 1.89; in assay [4], 1.68; in assay [6], 1.69.

Regarding AGTCTC, the binding signal was determined as 0.986 in assay [1]; 0.988 in assay [2]; 0.944 in assay [3]; 0.989 in assay [4]; 0.913 in assay [5].

For the sequence CGTTGT, the binding signal is 0.99 in assay [1]; 0.86 in assay [2]; 1.01 in assay [3]; 0.962 in assay [4]; 1.13 in assay [5].

Consider AACCGG, for which the binding signal turned out to be 1.53 in assay [3], 1.31 in assay [4] and 1.43 in assay [6].

In the case of CGTTTG, the binding signal came to 0.943 in assay [1], 1.01 in assay [3] and 0.944 in assay [4].

With TCGTTA, the binding signal in assay [1] came to 0.926; in assay [2], 0.908; in assay [3], 0.979; in assay [4] it was 0.933; in assay [5] it was 1.08.

Regarding TAGACT, the binding signal in assay [2] was found to be 0.99; in assay [3], 0.969; in assay [4] it was 0.981; in assay [5], 0.981.

As for AAATCT, the binding signal worked out at 1.29 in assay [2], 1.31 in assay [3], 1.34 in assay [4] and 1.24 in assay [5].

Take GTATGT: the binding signal amounted to 0.965 in assay [1]; 0.905 in assay [2]; 0.956 in assay [3]; 0.97 in assay [4]; 0.973 in assay [6].

Regarding CTTTAT, the binding signal in assay [2] was 1.19; in assay [3], 1.21; in assay [4], 1.19; in assay [6] it was 1.22.

GGATTT: the binding signal in assay [1] was 1.24; in assay [3] it was 1.33; in assay [4] it was 1.26.

For CCAACG, the values for the binding signal in assay [3], in assay [4] and in assay [6] were 1.06, 1.21 and 1.1, respectively.

In the case of CCGGTG, the binding signal in assay [1] came out at 0.986; in assay [2], 0.955; in assay [3] it was 0.983; in assay [4], 0.96; in assay [5] it was 0.886.

Consider TAAGCG, for which the binding signal is 0.956 in assay [2], 1.02 in assay [3], 0.923 in assay [4] and 1.03 in assay [6].

For GCAATT, the binding signal in assay [2] was 1.21; in assay [3] it was 1.12; in assay [4] it was 1.12; in assay [5] it was 1.01.

Take CTACCG: the binding signal in assay [2] stood at 1.73; in assay [3] it was 1.64; in assay [4] it was 1.59; in assay [5], 1.47.

As for GCTAGG, the binding signal in assay [2] worked out at 0.985; in assay [3], 0.969; in assay [4], 1.06; in assay [5] it was 0.93.

CAAGCT: the binding signal was 0.962 in assay [1], 0.954 in assay [3] and 1.02 in assay [4].

With CTGGTG, the binding signal in assay [2] amounted to 0.956; in assay [3], 0.875; in assay [4], 0.928; in assay [5], 0.994.

As to TTGCTG, the values for the binding signal in assay [1], in assay [3] and in assay [4] were 1.25, 1.09 and 1.35, respectively.

Take ACGCGG: the binding signal in assay [3] stood at 1.02; in assay [4], 1; in assay [6] it was 0.968.

Take ACTTAG: the binding signal in assay [2] is 1.11; in assay [3] it was 1.16; in assay [4], 1.03; in assay [6], 0.995.

With GCCGTC, the binding signal in assay [1] turned out to be 1.1; in assay [2], 0.959; in assay [3], 0.954; in assay [4], 0.951; in assay [6], 0.973.

For TCTAGA, the binding signal was 0.939 in assay [2], 0.938 in assay [3], 0.994 in assay [4] and 0.949 in assay [5].

As for GGATGG, the binding signal in assay [1] was 0.952; in assay [2] it was 1.03; in assay [3], 0.939; in assay [4], 0.923; in assay [5] it was 0.99.

As for GGTCTG, the binding signal was 0.998 in assay [1], 0.971 in assay [3], 0.993 in assay [4] and 0.926 in assay [6].

TAGATA: the binding signal in assay [1] turned out to be 1.06; in assay [3], 0.992; in assay [4] it was 1.07; in assay [6] it was 1.12.

On to CTGAAA, for which the binding signal in assay [3] worked out at 1.22; in assay [4], 1.13; in assay [6], 1.1.

Take ATGCGT: the binding signal in assay [1] turned out to be 0.961; in assay [2] it was 1.03; in assay [3], 0.991; in assay [4], 0.979; in assay [6], 1.1.

For the sequence GACCGC, the binding signal was 0.926 in assay [1]; 0.923 in assay [2]; 0.869 in assay [3]; 0.991 in assay [4]; 0.915 in assay [6].

As to GTCGAC, the binding signal was found to be 0.985 in assay [2], 0.957 in assay [3], 0.994 in assay [4] and 0.948 in assay [6].

Consider GACACT, for which the binding signal in assay [1] is 0.99; in assay [2] it was 0.953; in assay [3], 0.972; in assay [4] it was 0.99; in assay [6] it was 1.08.

CAACTG: the binding signal in assay [3] was found to be 1.11; in assay [4] it was 1.07; in assay [6], 1.17.

As for GTTATG, the binding signal in assay [1] was found to be 1.2; in assay [3], 1.14; in assay [4], 1.1.

Consider AGTTGC, for which the binding signal in assay [1] turned out to be 0.986; in assay [2], 0.925; in assay [3] it was 0.987; in assay [4] it was 0.958; in assay [5], 0.853.

As for TATTTG, the binding signal in assay [3] came to 1.47; in assay [4], 1.3; in assay [6], 1.47.

For the sequence TGCGGT, the binding signal in assay [3] turned out to be 0.955; in assay [4] it was 0.981; in assay [6], 0.992.

GCCCCC: the binding signal amounted to 0.974 in assay [2], 1.06 in assay [3] and 1.11 in assay [4].

Take TATGCA: the binding signal in assay [1] was determined as 1.12; in assay [2], 1.25; in assay [3], 1.18; in assay [4], 1.27.

These data come from article PMC7862700.
